Source: US9583325B2, “System and method of delicate membrane condensed phase membrane introduction mass spectrometry (CP-MIMS)” (priority 2013, dated 2017)

What was measured:
[1] = Miniature CP-MIMS coaxial probe measurements in aqueous samples; conditions: for membrane wash-out Improvement Factor (IF), methanol versus water wash: 40 mL stirred wash solvent; for sensitivity relative to gemfibrozil (times greater, per mass): from calibration slopes
[2] = Delicate membrane CP-MIMS flow cell: detection limits and signal response times in aqueous solutions
[3] = 215 μm thick PDMS HFM, 10 cm, aqueous 30 °C
[4] = Composite PDMS HFM (0.5 μm thick), 10 cm
[5] = 35 μm thick PDMS HFM, 5 cm, S/N = 3
[6] = Composite PDMS HFM (0.5 μm thick), S/N = 3

## Oc1c(Cl)cc(Cl)cc1Cl [2,4,6-Trichlorophenol, 2,4,6-trichlorophenol]
[1]; miniature probe
  membrane wash-out Improvement Factor (IF), methanol versus water wash: 1.2
[2]; 35 μm thick PDMS HFM, 5 cm
  t10-90% response time: 0.7 min
[2]; [3]
  t10-90% response time: 2.5 min
[2]; [4]
  t10-90% response time: 0.3 min

## Oc1cc(Cl)ccc1Oc1ccc(Cl)cc1Cl [Triclosan, 5-chloro-2-(2,4-dichlorophenoxy)phenol]
[1]
  sensitivity relative to gemfibrozil (times greater, per mass): 6.0 times
[2]; 35 μm thick PDMS HFM, 5 cm
  t10-90% response time: 2.0 min
[2]; [5]
  Detection limit: 0.5 ppb
[2]; [3]
  t10-90% response time: 5.8 min
[2]; 215 μm thick PDMS HFM, S/N = 3
  Detection limit: 0.1 ppb
[2]; [4]
  t10-90% response time: 0.6 min
[2]; [6]
  Detection limit: 0.1 ppb

## nonylphenol
[1]
  sensitivity relative to gemfibrozil (times greater, per mass): 5.2 times
[1]; miniature probe
  membrane wash-out Improvement Factor (IF), methanol versus water wash: 4.1
[2]; 35 μm thick PDMS HFM, 5 cm
  t10-90% response time: 3.5 min
[2]; [5]
  Detection limit: 2 ppb
[2]; [3]
  t10-90% response time: 9.5 min
[2]; 215 μm thick PDMS HFM, S/N = 3
  Detection limit: 0.1 ppb
[2]; [4]
  t10-90% response time: 1.0 min
[2]; [6]
  Detection limit: 0.5 ppb

## CC(C)C1=CC2=CC[C@@H]3[C@](C)(CCC[C@@]3(C)C(=O)O)[C@H]2CC1 [Abietic Acid, Abietic acid]
[2]; 35 μm thick PDMS HFM, 5 cm
  t10-90% response time: 12.5 min
[2]; [5]
  Detection limit: 2 ppb
[2]; [3]
  t10-90% response time: 16.5 min
[2]; 215 μm thick PDMS HFM, S/N = 3
  Detection limit: 1 ppb
[2]; [4]
  t10-90% response time: 1.6 min
[2]; [6]
  Detection limit: 0.6 ppb

## Cc1ccc(C)c(OCCCC(C)(C)C(=O)O)c1 [Gemfibrozil, 5-(2,5-dimethylphenoxy)-2,2-dimethyl-pentanoic acid]
[1]; 40 mL of 70 ppb aqueous sample
  concentration observed in the methanol acceptor phase: 9 ppb
[1]; 70 ppb sample, acceptor flow 200 μL/min
  total mass transfer from the sample under steady state: ca. 2 ng/min
[1]; 400 μL sample, 70 ppb
  maximum signal level lower than in 1.8 mL or larger samples: ~5 ×
[1]; DI water, miniature probe, stir bar mixing
  calibration slope: 30 ppb^−1
[2]; 35 μm thick PDMS HFM, 5 cm
  t10-90% response time: 3.7 min
[2]; [5]
  Detection limit: 0.5 ppb
[2]; [3]
  t10-90% response time: 4.7 min
[2]; 215 μm thick PDMS HFM, S/N = 3
  Detection limit: 0.2 ppb
[2]; [4]
  t10-90% response time: 0.8 min
[2]; [6]
  Detection limit: 0.04 ppb
[2]; Example 5, experiments to be repeated, composite PDMS HFM
  Detection limit: 40 pptr
[2]; composite PDMS HFM
  Detection limit: 40 pptr

Where no unit stands, none is given here, and values compare only within one read-out.
